# Laboratory results reported in PMC5996148.
# Some of the results follow. For some assays here: Construct or isoform of the protein are uncertain.
# Legend:
# Experiment in all cases: protein microarray (ProtoArray v5.0), streptavidin-Alexa Fluor 647
# Settings in all cases: 3'-biotin; 20 mM Tris (pH 7.5), 5 mM MgCl2, 100 mM KCl, 0.1% Tween-20, A/T-rich and random oligonucleotide blockers; temperature not stated; high values mean tight binding
# [1] = test system: KRT33B (human)
# [2] = test system: KRT8 (human)
# [3] = test system: Kallikrein-1 (human)
# [4] = test system: Kelch-like ECH-associated protein 1 (human)
# [5] = test system: Keratinocyte growth factor (human)
# [6] = test system: Kinesin light chain 1 (human)
# [7] = test system: L-asparaginase (human)
# [8] = test system: LACTB2 (human)
# [9] = test system: LAIR2 (human)
# [10] = molecular target: LARP1 (UniProt Q6PKG0)
# [11] = molecular target: T1, LARP7 (UniProt Q4G0J3)
# T1 sequence: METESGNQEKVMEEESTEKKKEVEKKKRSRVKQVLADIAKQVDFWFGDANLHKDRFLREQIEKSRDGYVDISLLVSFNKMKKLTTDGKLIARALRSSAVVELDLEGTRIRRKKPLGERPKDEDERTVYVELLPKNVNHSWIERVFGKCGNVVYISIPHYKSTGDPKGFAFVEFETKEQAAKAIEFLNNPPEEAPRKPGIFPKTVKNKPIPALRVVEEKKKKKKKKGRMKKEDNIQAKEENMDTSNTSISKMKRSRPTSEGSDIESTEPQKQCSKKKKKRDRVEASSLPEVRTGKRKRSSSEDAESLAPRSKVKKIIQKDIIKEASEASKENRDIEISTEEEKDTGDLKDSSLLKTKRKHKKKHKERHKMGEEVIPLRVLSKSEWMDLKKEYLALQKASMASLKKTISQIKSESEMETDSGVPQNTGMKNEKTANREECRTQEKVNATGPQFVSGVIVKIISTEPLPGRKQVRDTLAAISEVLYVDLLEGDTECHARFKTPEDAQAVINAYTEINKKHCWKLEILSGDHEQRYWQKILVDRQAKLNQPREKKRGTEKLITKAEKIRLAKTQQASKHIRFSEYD
# [12] = test system: LAS1L (human)
# [13] = test system: LCN1 (human)
# [14] = test system: LCP1 (human)
# [15] = test system: LDB2 (human)
# [16] = test system: LETM2 (human)
# [17] = test system: LGALS1 (human)
# [18] = test system: LGALS3 (human)
# [19] = test system: LILRB1 (human)
# [20] = test system: LIMD1 (human)
sequence,measurement,setting,value
GGTGACAGGGGTATGGGGAGGGG [G4-2 biotinylated (Ct1)],binding signal,[1],-0.38 z-score
same,binding signal,[2],-0.384 z-score
same,binding signal,[3],-0.365 z-score
same,binding signal,[4],-0.388 z-score
same,binding signal,[5],-0.39 z-score
same,binding signal,[6],-0.389 z-score
same,binding signal,[7],-0.373 z-score
same,binding signal,[8],-0.392 z-score
same,binding signal,[9],-0.379 z-score
same,binding signal,[10],5.37 z-score
same,binding signal,[11],4.49 z-score
same,binding signal,[12],-0.369 z-score
same,binding signal,[13],-0.394 z-score
same,binding signal,[14],-0.379 z-score
same,binding signal,[15],-0.411 z-score
same,binding signal,[16],-0.388 z-score
same,binding signal,[17],-0.372 z-score
same,binding signal,[18],-0.384 z-score
same,binding signal,[19],-0.378 z-score
same,binding signal,[20],-0.396 z-score

# Another view of part of the listing above:
sequence	measurement	setting	value
GGTGACAGGGGTATGGGGAGGGG [G4-2 biotinylated (Ct1)]	binding signal	[7]	-0.373 z-score
same	binding signal	[8]	-0.392 z-score
